# System: IL-17A-induced G-CSF production in human normal keratinocyte (NHK)
# Assay: NHK assay: IL-17A-induced G-CSF production in normal human keratinocytes
# Type: cell-based
# Conditions: (S)-configuration on C-3 (cis) vs (R)-epimer (trans): Example 51 vs 52, Example 59 vs 60
# Experimental: IL-17A acts directly on keratinocytes through binding to dimeric receptor IL-17RA/RC and drives the production of a number of inflammatory mediators known to be elevated in psoriasis lesional tissue. IL-17A small molecule inhibitors that block the IL-17A to interact with IL-17R would inhibit the IL-17A signaling in its targeted cells such as keratinocytes. The compound functional activity is evaluated for its impact on IL-17A-induced G-CSF production in human normal keratinocyte (NHK).
# Adult normal human keratinocytes are cultured in keratinocyte growth medium (Lonza) in a flask till reaching ~90% confluence, then cells are transferred to a 384-well plate at density of 3000-4000 cell/well. Recombinant human IL-17A (Gibco PHC9174) is pre-incubated with titrated compound or DMSO for 1 h at rt then added to the cell culture plate. The final concentration of IL-17A is 5 ng/mL and DMSO is 0.2%, in the culture containing 5% FBS. Cells are cultured/treated for 24 h at 37° C. Supernatants are collected and G-CSF production is measured through HTRF technology using Human G-CSF Kit (CisBio). G-CSF concentration was extrapolated from the standard curve and IC50 is determined using GraphPad Prism. Cell viability is also evaluated using CellTiter-Glo kit (Promega) and effect of compound on cell viability is compared to DMSO control.
row,SMILES,potency increase in the NHK IC50 when compared to its C-3 epimer
1,"CC(C)n1nccc1C(=O)N[C@H](c1cn2ncc(C[C@H]3C[C@@H](C(F)(F)F)NC3=O)cc2n1)C1CCC(F)(F)CC1 [Example 51, N—((S)-(4,4-Difluorocyclohexyl)(7-(((3S,5S)-2-oxo-5-(trifluoromethyl)pyrrolidin-3-yl)methyl)imidazo[1,2-b]pyridazin-2-yl)methyl)-1-isopropyl-1H-pyrazole-5-carboxamide]",more than 100 fold
2,"O=C(N[C@H](c1cn2ncc(C[C@H]3C[C@@H](C(F)(F)F)NC3=O)cc2n1)C1CCC(F)(F)CC1)c1nonc1C1CC1 [Example 59, 4-Cyclopropyl-N—[(S)-(4,4-difluorocyclohexyl)-[7-[[(3S,5S)-2-oxo-5-(trifluoromethyl)pyrrolidin-3-yl]methyl]imidazo[1,2-b]pyridazin-2-yl]methyl]-1,2,5-oxadiazole-3-carboxamide]",more than 80 fold

# Reference: patent US20260258048A1, “LACTAM-CONTAINING IMIDAZOPYRIDAZINE IL-17 INHIBITOR COMPOUNDS” (Janssen Pharmaceutica NV, priority 2023, published 2026)
